# Measurements reported in PubChem BioAssay AID504327 (National Center for Advancing Translational Sciences (NCATS), 2011).
# Sequences of proteins named here, by UniProt entry; tags and fusion partners are left off.
# UniProt Q92830, whole entry, looked up: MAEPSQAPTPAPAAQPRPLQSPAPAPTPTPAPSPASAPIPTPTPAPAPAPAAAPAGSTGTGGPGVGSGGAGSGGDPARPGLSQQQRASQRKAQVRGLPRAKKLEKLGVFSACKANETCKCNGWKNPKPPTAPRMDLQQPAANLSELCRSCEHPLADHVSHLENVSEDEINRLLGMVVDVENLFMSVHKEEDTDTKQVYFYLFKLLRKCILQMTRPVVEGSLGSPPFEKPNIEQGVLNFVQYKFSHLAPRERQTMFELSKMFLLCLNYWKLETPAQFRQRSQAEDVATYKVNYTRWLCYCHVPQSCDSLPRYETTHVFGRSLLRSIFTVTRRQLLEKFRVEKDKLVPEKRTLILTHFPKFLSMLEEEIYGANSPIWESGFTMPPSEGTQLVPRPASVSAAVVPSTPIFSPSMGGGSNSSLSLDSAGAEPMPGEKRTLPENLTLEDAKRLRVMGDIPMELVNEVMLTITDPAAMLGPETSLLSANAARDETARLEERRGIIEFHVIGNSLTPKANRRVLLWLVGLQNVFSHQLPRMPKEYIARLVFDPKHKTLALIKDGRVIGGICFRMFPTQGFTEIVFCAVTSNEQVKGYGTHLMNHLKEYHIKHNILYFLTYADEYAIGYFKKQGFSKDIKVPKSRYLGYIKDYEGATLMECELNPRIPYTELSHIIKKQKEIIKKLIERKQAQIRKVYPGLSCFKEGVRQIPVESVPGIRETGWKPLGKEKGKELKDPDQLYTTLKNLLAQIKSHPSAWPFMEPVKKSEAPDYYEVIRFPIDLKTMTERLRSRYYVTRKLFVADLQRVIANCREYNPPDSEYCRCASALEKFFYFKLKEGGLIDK
# In all, about 390,000 compounds went through this assay and about 820 (0.21%) were called active. The inconclusive results got no clear call from the source; some entries with a clear call stand among them for comparison. Calls come from the whole dose curve; as a rule, active = well fitted inhibition curve with a large enough effect; inconclusive = small, poorly fitted or top-dose-only effect, or another doubt; inactive = no such curve, though single readings can be large or run the other way. Potencies beside an inconclusive call are fits to weak or partial responses and may not hold up.
# Biological target: Histone acetyltransferase KAT2A (Homo sapiens) (UniProt Q92830)
# Experiment: qHTS Assay for Inhibitors of GCN5L2
# Conditions: GCN5L2 HAT assay, ThioGlo1 CoA-SH fluorescence; activity change, negative = inhibition: at 58.9 µM (top of the series) unless noted
# Source text: Histone acetyltransferase (HAT) enzymes transfer a […] group from acetyl-coenzyme A to the epsilon-amino group of conserved lysine residues of N-terminal histone tails. Acetylation results in charge neutralization of this positively charged amino acid, decreasing interactions with the […] backbone and making the DNA more accessible for transcription. HATs have been recognized as an emerging drug target for treatment of cancer, diabetes, asthma, chronic obstructive pulmonary disease, cardiac disease, and viral infection. Protein identified with HAT activity include the […] like 2 (GCN5L2, a.ka. Histone acetyltransferase KAT2A) which acetylates histone H3 at Lys9, 14, 18, 13, and to lesser extent histones H4 and H2B. This activates transcription of the gene by modulating chromatin structure and installing the acetyllysine recognition mark for bromodomain-containing coactivator proteins.
# A quantitative high throughput screen was developed to identify small molecule inhibitors. The assay is based on the principle that it measures formation of reduced CoA with the pro-fluorescent maleimide derivative ThioGlo1 that becomes fluorescent upon reaction with the free thiol of CoA.
# A large number of artifacts are expected in this primary screen, compounded by the assay format (fluorescent artifacts) and by the high top concentration tested for each substance. This BioAssay data deposition should be used with caution, and counterscreen and secondary assay validation is essential since very few actives from the primary screen are expected to be true inhibitors of GCN5L2.
# [2] Yasgar, et al. Compound Management for Quantitative High-Throughput Screening. JALA. 2008 Apr;13(2):79-89.
# [3] Inglese, et al. Quantitative high-throughput screening: a titration-based approach that efficiently identifies biological activities in large chemical libraries. Proc Natl Acad Sci. 1;103(31):11473-8. 2006. PMID: 16864780
# NIH Molecular Libraries Probe Production Network [MLPCN]
# NIH Chemical Genomics Center [NCGC]
# Structural Genomics Consortium (SGC)
# To each well of a 1,536w plate, 3ul of GCN5L2 (final concentration 20nM, in 50mM HEPES, 0.1mM EDTA (pH 7.5), 0.01% Tween-20 buffer) are added using a Kalypsys dispenser. Only buffer is added to some wells as a control. A Kalypsys pin-tool transferred 23nl of library compound solution in DMSO to each well, as well as the control inhibit garcinol. . Following a 15 min incubation of enzyme with compounds at room temperature, 1ul mixture of ThioGlo1 (50uM final), H3(1-25) peptide (75uM final), and Acetyl-CoA (70uM final) is added. Plates are read immediately on the ViewLux (PerkinElmer) (Ex340nm/Em540nm) for a 0 min read, incubated for 20 min at room temperature, and read again on the ViewLux with the same settings. The initial read was carried out to identify compounds that are potentially fluorescent.
# % is set by controls: 0 for no effect and ±100 for the full control effect; potency is the fitted concentration of half-maximal effect.
SMILES,"activity change, negative = inhibition",Potency
O=C(CC(Sc1ccc(Br)cc1)C(=O)O)c1ccc(Br)cc1 (centres undefined),inactive: -6.46%,
O=C(CSc1cccc2cccnc12)Nc1cc(C(=O)O)cc(C(=O)O)c1,,"inconclusive: 0.794 µM [inhibitor, partial curve, poor fit]"
COc1cccc(NC(=O)CN(C)S(=O)(=O)c2ccc3c(c2)CCC(=O)N3)c1,,"inconclusive: 39.8 µM [inhibitor, single point]"
Cc1ccc(C)c(NC(=O)NNC(=O)CCc2ccccc2)c1,,"inconclusive: 25.1 µM [inhibitor, single point]"
Cc1ccccc1OCC(=O)NNC(=O)CSc1nc(N)cc(N)n1,inactive: 1.84%,
O=C(Nc1ccc(C(=O)O)cc1)/C(=C\c1ccco1)NC(=O)c1ccccc1,inactive: 1.62%,
CCOC(=O)c1c(S(=O)(=O)NCC(=O)N2CCN(c3ccccc3OC)CC2)c(C)n(C)c1C,,"inconclusive: 0.708 µM [inhibitor, full curve, poor fit]"
FC(F)(F)c1cc(C(F)(F)F)c2ccc(Oc3ccccc3)nc2n1,,"inconclusive: 5.01 µM [inhibitor, single point]"
Cc1cc(C(=O)NNC(=O)c2c(-c3c(Cl)cccc3Cl)noc2C)no1,,"inconclusive: 7.08 µM [inhibitor, single point]"
COC(=O)c1sc(-c2ccc(C(C)(C)C)cc2)cc1NC(=O)CCC(=O)O,,"inconclusive: 31.6 µM [inhibitor, single point]"
CCCCC(=O)Nc1nc(-c2ccc(S(=O)(=O)N3CCOCC3)cc2)cs1,,"inconclusive: 3.16 µM [inhibitor, partial curve, poor fit]"
CC1CC(C)CN(C(=O)c2ccc(NS(=O)(=O)c3ccc4[nH]c(=O)[nH]c4c3)cc2)C1 (centres undefined),inactive: -1.69%,
C/C(=N\NC(=O)c1cccc(Br)c1)c1cccc(NC(=O)c2ccc(C)o2)c1,,"inconclusive: 8.91 µM [inhibitor, single point]"
COC(=O)CC1SC(=O)NC1=Nc1cccc(C)c1 (centres undefined),,"inconclusive: 39.8 µM [inhibitor, single point]"
O=C(Cn1ccnc1)c1ccc(Cl)cc1,inactive: 11.9%,
COC(=O)c1sc(Nc2ccccc2)nc1C,,"inconclusive: 0.631 µM [inhibitor, single point]"
CCN(CC)c1ccc2cc(C#N)c(=O)oc2c1,,"inconclusive: 8.91 µM [inhibitor, single point]"
COc1ccc(CNC(=O)CNC(=O)c2c(C)nn(C)c2Cl)cc1,inactive: 16.2%,
CCOC(=O)c1sc(N)c(C(=O)Nc2ccccc2OC)c1C,,"inconclusive: 39.8 µM [inhibitor, single point]"
COc1ccccc1-c1coc2c(CN3CCCCC3C)c(O)ccc2c1=O (centres undefined),,"inconclusive: 35.5 µM [inhibitor, single point]"
CC(C)(C)C1=CC(=O)C(=O)C(C(C)(C)C)=C1,,"inconclusive: 25.1 µM [inhibitor, partial curve]"
O=C(COC(=O)/C=C/c1ccco1)Nc1ncc(C(F)(F)F)cc1Cl,inactive: 6.6%,

# By substructure, those above containing a tert-butyl group (2)
SMILES,"activity change, negative = inhibition",Potency
COC(=O)c1sc(-c2ccc(C(C)(C)C)cc2)cc1NC(=O)CCC(=O)O,,"inconclusive: 31.6 µM [inhibitor, single point]"
CC(C)(C)C1=CC(=O)C(=O)C(C(C)(C)C)=C1,,"inconclusive: 25.1 µM [inhibitor, partial curve]"

# (next part)

SMILES,"activity change, negative = inhibition",Potency
Cc1ccc(S(=O)(=O)Nc2cc(C)c(O)c(S(=O)(=O)c3ccc(C)cc3)c2)cc1,,"inconclusive: 0.794 µM [inhibitor, full curve, poor fit]"
CC(=O)/C(C(=N)N1CCN(Cc2ccccc2)CC1)=C(\C)O,,"inconclusive: 3.55 µM [inhibitor, single point]"
Cc1ccc(S(=O)(=O)NCl)cc1,,"inconclusive: 39.8 µM [inhibitor, single point]"
COc1ccc(NC(=O)CSc2ccc(-c3sc(C)nc3C)nn2)cc1OC,,"inconclusive: 0.112 µM [inhibitor, full curve, poor fit]"
COc1cc(NS(=O)(=O)c2ccc3c(c2)C(C)(C)C(=O)N3C)cc(OC)c1,,"inconclusive: 0.631 µM [inhibitor, single point]"
CCOCCCNC(=O)c1ccc(C2SCC(=O)N2Cc2ccccc2)cc1 (centres undefined),,"inconclusive: 22.4 µM [inhibitor, single point]"
CCCCC#Cc1ccc(C(=O)NNC(=O)Nc2ccccc2)o1,,"inconclusive: 10 µM [inhibitor, partial curve, poor fit]"
Cc1csc2c(=O)sc(NC(=O)c3cccs3)nc12,,"inconclusive: 17.8 µM [inhibitor, single point]"
CCOc1ccc(-c2cc(C(F)(F)F)c(C#N)c(SCC(=O)Nc3ccccc3)n2)cc1,inactive: 2.39%,
O=C(O)c1cccc(Cn2c(Cl)c(/C=N/NC(=O)c3ccccc3Cl)sc2=O)c1,,"inconclusive: 1 µM [inhibitor, full curve, poor fit]"
COc1cccc(OC)c1C(=O)Nc1ccc2c(c1)CCCN2S(=O)(=O)c1ccc(C)cc1,,"inconclusive: 0.794 µM [inhibitor, full curve, poor fit]"
CCCCN1CCNC[C@@H]1c1ccccc1,inactive: 0.856%,
O=C(Nc1ccccc1)N1CCc2c([nH]c3ccccc23)C1C(F)(F)F (centres undefined),inactive: 2.5%,
CC(=O)c1cccc(Nc2nc(-c3sc(N)nc3C)cs2)c1,,"inconclusive: 0.631 µM [inhibitor, single point]"
COc1cccc(/C=N/NC(=S)NCCc2ccccc2)c1OC,,"inconclusive: 39.8 µM [inhibitor, single point]"
O=C1CSC(c2cn(-c3ccccc3)nc2-c2cc3ccccc3o2)N1Cc1ccccc1 (centres undefined),inactive: -3.19%,
CCN(CC)c1ccc2cc(C(=O)NCc3ccc(F)cc3)c(=N)oc2c1,,"inconclusive: 39.8 µM [inhibitor, single point]"
CC1(NC(=O)CCc2nc3sc4c(c3c(=O)[nH]2)CCCC4)CCS(=O)(=O)C1 (centres undefined),,"inconclusive: 4.47 µM [inhibitor, full curve]"
Cc1ccc(-n2c(SCC(=O)N/N=C/c3c(C)nn(-c4ccccc4)c3C)nc3ccccc3c2=O)cc1,inactive: -7.65%,
CC(=O)Nc1cccc(NC(=O)Nc2cccc(Cl)c2C)c1,inactive: 22.2%,
COc1cc(/C=C2\SC(N3CCCCC3)=NC2=O)cc(OC)c1OC,,"inconclusive: 0.794 µM [inhibitor, full curve, poor fit]"
COc1cc(C(=O)N2CCN(c3ccccc3)CC2)c([N+](=O)[O-])cc1OC,inactive: 2.41%,
